Experimental data published in PubChem BioAssay AID1347423 (Functional Genomics Laboratory (NCATS/FGL), 2020).
About 210 (0.4%) of roughly 52,000 sequences were called active.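 The calls were made as follows: active = gene whose silencing raises cell survival under the drug, median off-target-corrected z-score across its silencing RNAs 2 or more; inactive = the rest.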 Some of the results follow.

Assay: Resistance to Poly (ADP-Ribose) Polymerase inhibitor: Gene Identification via Genome-wide siRNA Screen
Settings: mouse BRCA2 R2336H ES cells, olaparib, CellTiter-Glo viability; hits give high values
Summary of the method: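 Mouse BRCA2 R2336H ES cells were reverse-transfected with siRNA (20 nM final), treated at 48 h with 500 nM olaparib, and read by CellTiter-Glo after 72 h. Scores: MAD-based z per siRNA, median per gene, seed off-target correction.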

| Sequence | z-score |
| --- | --- |
| GCAUUGUAAGUUGAAAACATT against 0610033I05Rik | inactive: 0.449 |
| GCCGUCACAAGAACUGAACTT against D10Ucla2 | inactive: -1.28 |
| GAAUUACACACAGGCCUGATT against Olfr1048 | inactive: -0.664 |
| GGUGAGGACCAAAAGCUGGTT against Plcd4 | inactive: 0.327 |
| GCCAGCAAAAGACACAAUATT against 2610028F08Rik | inactive: -0.399 |
| GGAUCACUAUUGCUCCCAUTT against 4930432K21Rik | inactive: 0.25 |
| CCGUAAGUCUCGGAUCUCCTT against A330045H12Rik | inactive: 1.38 |
| GCUAUAGGGACCUCUGUCATT against Cdh5 | inactive: -2.38 |
| CGAUGCAAAAAGAAUAGACTT against Mark1 | inactive: -0.143 |
| GCAACCGAAUUUUACCUCUTT against Olfr820 | inactive: 0.0806 |
| GGAUUACGGUGGGAUCAUGTT against 6230409E13Rik | inactive: -2.86 |
| GGUUUUCAAAAGUGGAGAATT against Ubr1 | inactive: -0.766 |
| GACUGGGUAACCCAUCCCUTT against Srd5a1 | inactive: -0.254 |
| AGAACAGCUACUUUCUGACTT against Cebpe | inactive: -0.29 |
| CCUCGUGUUAUGCAUGGAATT against Kitl | inactive: 0.503 |
| GCAGGUGCCAACAUUAUUGTT against 0610039C21Rik | inactive: 1.5 |
| GAGGUUUAUUGUAAUGGCUTT against Olfr1271 | inactive: 0.924 |
| GGAGCAACACUUGCGUACUTT against 1810009O10Rik | inactive: 1.61 |
| CGGGAUCUUAGAAGAGCAATT against Ptpre | inactive: 0.964 |
| GCAGGACAAAUUGGUUGUGTT against Olfr457 | inactive: -1.01 |
| CCUGAUCUUAAACAAAGAATT against 2610507B11Rik | inactive: -0.942 |
| CGACCUAUUAGAGAGCAACTT against Zfp248 | inactive: 1.08 |
| GCAGACAGAUCGCUUCAACTT against Dok4 | inactive: 0.045 |
| UUCCUCAAUGCUUCCAUUUTT against Olfr1454 | inactive: 1.06 |
| CGUUCUUCAGCUAUUCAUUTT against Slc37a3 | inactive: -1.66 |
| GCUGAUGUAUGGAAUGCUCTT against Trappc1 | inactive: 0.506 |

| Sequence | z-score |
| --- | --- |
| GGACUGUGAUCAGGUUUGUTT against Elk3 | inactive: -1.36 |
| GGGCUAAAGAAACAAUCCCTT against Gpr2 | inactive: -0.131 |
| GGAUCAACAUCAGAGUUCUTT against BC031441 | inactive: -0.0531 |
| GCUUCCUCUAUUCGAUUUUTT against Rab6ip1 | inactive: 0.187 |
| CCGAAUCCUUAAAAUCUGCTT against Zfp78 | inactive: -0.186 |
| GGCAUUAAGUGCUUGCUCATT against AI837181 | inactive: -1.25 |
| GCUACAGAAUCAUACGAUGTT against Zfp521 | inactive: -0.234 |
| GGUAUCUCUACCUCGAGGATT against Cdk4 | inactive: 0.825 |
| CCAAAAUCGGGAAAGGAAATT against Ldb2 | inactive: -0.682 |
| GCGUGUCCCUUCAGUUUGUTT against Zfp96 | inactive: 0.122 |
| CGAUAAUGAAAGUGACCAUTT against C80913 | inactive: -0.176 |
| GGCCCAACCUUGGAUCUUUTT against 0610006K04Rik | inactive: -0.704 |
| GGUAUAAUUGGAAUUGUGATT against Morc | inactive: -0.367 |
| CCAUAUCGAGUACCUCCAATT against Rtn4rl1 | inactive: -1.43 |
| GGUGCUGCCCUGUCUAUUGTT against Gm587 | inactive: -0.0762 |
| GCUUGCUCUAUUGCCAAUATT against Crem | inactive: -0.0675 |
| GCUCCUGUGAUUGAUGCAGTT against Dnchc1 | inactive: -0.899 |
| GCUUGGGUUCAGUGUGAAGTT against LOC547343 | inactive: -1.12 |
| GGACUUUUACCAGUUCUCCTT against Ece2 | inactive: 0.967 |
| GCAUUAAAACUUCCUUUUGTT against Ubl3 | inactive: 0.603 |
| GCUCGUUCUGAAGAUAAGUTT against C80587 | inactive: 0.133 |
| GCUGUAAGCAGUCCAAAUATT against Kdelr3 | inactive: 1.13 |
| GCUGGUUUCUUAUAGGAAGTT against Dnmt3b | inactive: 0.069 |
| GGACUUCUAUCCACUCACGTT against Helz | inactive: -1.39 |
| GGUAUGUCUGUAACUCUGGTT against Il15ra | inactive: 1.27 |
| GCGUGAGCUAAUGUUCACATT against Agpat2 | inactive: -1.04 |

| Sequence | z-score |
| --- | --- |
| GGUCAUCUCCAGAUACCCATT against 6330406L22Rik | inactive: 2.52 |
| GGAGAACAAGUGUCUGCUUTT against 9430079M16Rik | inactive: -2.12 |
| GGUACAGAUCUGGUCCUACTT against Il17rc | inactive: 1.47 |
| GGAGUGCUUUUAAAUCCCUTT against 1110037N09Rik | inactive: -0.954 |
| CGUAUUCCAUGGUUUCCUATT against Whrn | inactive: -0.24 |
| GGAGAUUGAACCAAAGCCUTT against Smpdl3b | inactive: -0.0281 |
| GCAGACGACAAGUUCUACATT against Ckap1 | inactive: 0.0961 |
| GGUUCCUUAAUUUAUUGCCTT against 1110004B15Rik | inactive: 1.02 |
| CCCUGCUGGUUGGUAAUCATT against F830005K03Rik | inactive: -1.63 |
| GUCAUCACAAGUCAAGAAGTT against Muc10 | inactive: 0.929 |
| GAUCAUCCAGCUGAAGCAGTT against Mafg | inactive: 0.437 |
| CCCGGCCACUGUUAUGAGATT against BC056474 | inactive: -0.0911 |
| GGAAACUACUCCAUGGUGATT against Olfr967 | inactive: 1.83 |
| GCAAUGGACUGACAUGUCATT against AI481750 | inactive: 0.766 |
| CGUGCUAAACCAAGACUUATT against Lyplal1 | inactive: -0.816 |
| GGAAUGUGAAGAAGAAAUUTT against 4930588M11Rik | inactive: -1.84 |
| GGUUGUACCUACAACAGAUTT against 1810011K17Rik | inactive: -0.0264 |
| CGAUUUCAGCUUAAAGCACTT against Lmo3 | inactive: 1.44 |
| GGCAGAGAGCAACUAUAUUTT against C1galt1 | inactive: 0.0809 |
| GGAGGAUGAAGGCCAUUCATT against Hnrpd | inactive: -1.79 |
| GGAGUAAAUUGAGAAACCATT against C730027J19Rik | inactive: -0.154 |
| CCCUACACAGAUCACCUAATT against G0s2 | inactive: -0.45 |
| GGCAUACCGGAAACUUGCCTT against 1700014P03Rik | inactive: -0.0223 |
| GGAUUGAGUGACGACUGACTT against Nova2 | inactive: -1.63 |
| GGCUGAAAUUGAACAGUACTT against Atp6v1g1 | inactive: -1.72 |
| GGAGGUCACACAUUCUGUGTT against Itgb7 | inactive: 2.29 |

| Sequence | z-score |
| --- | --- |
| GCCUGAGGAUCUAUAGAUATT against Isp2 | inactive: 1.01 |
| CCACUCUGAGAUAUCUGAATT against Olfr1277 | inactive: 0.401 |
| GCGAAACAGACACUUCGGUTT against Dlg7 | inactive: -0.497 |
| GGUAUAAAGCAUGAGUAUCTT against Dstn | inactive: 0.389 |
| GGUUACCACACUAUGUUACTT against 1810061M12Rik | inactive: 0.116 |
| GGGAUGUAUUAGUGAAAGGTT against Dm15 | inactive: -0.213 |
| GAAAUGUCCAUCCAAAAGCTT against Sprr2k | inactive: 0.579 |
| GCUGAGUGCCAAGAUUAUATT against Gnpda1 | inactive: 0.731 |
| GGAUUCUGGUGCUUUCCAGTT against Ptk7 | inactive: 0.225 |
| CCAUCUUCAGCAGUGGAAATT against Rph3al | inactive: -0.959 |
| GGAUCGCUCAUGGAUAUUUTT against Fus | active: -0.22 |
| GCAUCCUAGCAGAGAUUUATT against Pla2g1br | inactive: 1.71 |
| GGCUUGAUUUAUGAAUGUATT against Cacnb2 | inactive: -2.09 |
| GGACAAAAUCUUUGCUCUATT against Olfr1184 | inactive: -0.14 |
| GCUCAACCGUAACAUCCAGTT against Krt2-39 | inactive: 0.188 |
| GGUCGAAGAGGAAGUAAACTT against Tnfsf5 | inactive: -0.5 |
| GCUAACUGAGCUGCCGGAATT against Lrrn3 | inactive: -0.552 |
| GGACUUGAAAGAUAAAUAGTT against Crx | inactive: 0.683 |
| GGACAAGAUUCUAAACUGCTT against Wdr37 | inactive: -0.307 |
| GCUUUUGGUACAGGAUGCCTT against 5830411N06Rik | inactive: 0.964 |
| GGAUGGACUCCAGAAAAAUTT against Mmp1b | inactive: -2.48 |
| GGUACUGCUAUGAGAAACUTT against Adam22 | inactive: -2.54 |
| GCAUGUUACUAGGAUAACUTT against MGC107671 | inactive: -0.253 |
| GGACAUUACCUCCUUUGACTT against Tbl3 | inactive: -1.03 |
| GCUAAGAUUGUCAUGAUGUTT against Bambi | inactive: 0.222 |
| AAGACUGAGAGAGUCUUUUTT against Tcte3 | inactive: 0.5 |

In another format: results already given
Sequence	z-score
GGUCGAAGAGGAAGUAAACTT against Tnfsf5	inactive: -0.5
GCUAACUGAGCUGCCGGAATT against Lrrn3	inactive: -0.552
GGACUUGAAAGAUAAAUAGTT against Crx	inactive: 0.683
GGACAAGAUUCUAAACUGCTT against Wdr37	inactive: -0.307
GCUUUUGGUACAGGAUGCCTT against 5830411N06Rik	inactive: 0.964
